Measured values published in PubChem BioAssay AID493014 (National Center for Advancing Translational Sciences (NCATS), 2011).
About 170 (0.05%) of roughly 340,000 compounds were called active. Inconclusive results, whose numbers are uncertain, are shown with a selection of clear calls. The call rests on the fitted dose curve; in most records, active means well fitted inhibition curve with a large enough effect in the signal ratio, with a control signal flat (not every such curve was filed as active); inconclusive means small, poorly fitted or top-dose-only effect, or effect the other way, or a change in a side signal; inactive means flat fitted curve, though single readings scatter; the % refers to the signal ratio. Where the call is inconclusive, the potency comes from a doubtful curve fit.
Potency means the concentration at half of the fitted maximal effect.

Assay: qHTS Assay to Find Inhibitors of Chronic Active B-Cell Receptor Signaling;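 on activity change, negative = inhibition: plate controls were basal doxycycline-induced cells for no effect and cells given 10 µM MG132 for full effect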
Conditions: ABC-DLBCL IkBa-CBG/CBR reporter, luminescence ratio (green luciferase fused to IkBa over red control in TMD8 lymphoma cells), 4 h; activity change, negative = inhibition: at 46.1 µM (top of the series) unless noted
Method in brief: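 Concentration-response series (up to 46 uM) were applied to TMD8 dual-reporter cells for 4 h at 37C with doxycycline. Green/red ratio, after filter-overlap correction, defined %Activity; red signal alone was normalised to basal cells and zero luminescence.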
In the case of `Nn1c(Cc2cccc3ccccc23)nnc1SCn1nnc2ccccc2c1=O`, the activity change, negative = inhibition is reported as “inactive”. In the case of `O=C(CCl)N1CCN(S(=O)(=O)c2ccc3c(c2)OCCCO3)CC1`, the activity change, negative = inhibition is reported as inconclusive: -20.4%. In the case of `O=C(Cn1nnc(-c2ccc3c(c2)OCO3)n1)Nc1ccccc1C(=O)O`, the activity change, negative = inhibition is reported as inconclusive: 6.46%. For `Cn1c2ccccc2c(=O)c2ccc(NCCc3cccs3)cc21`, the activity change, negative = inhibition was “inactive”. In the case of `OC(COc1c(Br)cc(Br)cc1Br)CN1CCOCC1` (stereo not drawn), the activity change, negative = inhibition is reported as inconclusive: -20.4%. With `C/C(=N\NC(=O)CCCNc1ccc(C)cc1)c1ccccn1` the Potency was inconclusive: 25.9 µM [falling, partial curve, poor fit]. With `CCCCCn1c(N)c(-c2nc3ccccc3o2)c2c([N+](=O)[O-])nn(CC)c(=O)c21` the activity change, negative = inhibition was inconclusive: 9.33%. With `O=S(=O)(c1ccc(S(=O)(=O)N2CCC3(CC2)OCCO3)cc1)N1CCCC1` the activity change, negative = inhibition was inconclusive: -0.178%. With `CCc1ccc(/C=N/NC(=O)c2cc(C3CC3)nc3ccccc23)s1` the Potency was inconclusive: 18.4 µM [falling, partial curve]. For `C[C@H](NC(=O)[C@@H]1Cc2ccccc2CN1)C(=O)NC1CCCCC1`, the Potency was inconclusive: 35.5 µM [falling, single point]. For `CCc1ccc(N(C(=O)c2csnn2)C(C(=O)NC(C)(C)CC)c2ccccn2)cc1` (stereo not drawn), the activity change, negative = inhibition was “inactive”. With `CCS(=O)(=O)Nc1cccc(-c2ccc3nnc(C)n3n2)c1` the Potency was inconclusive: 35.5 µM [falling, single point]. For `O=S(=O)(Cc1cnc(Cl)s1)c1ccccc1`, the activity change, negative = inhibition was inconclusive: -3.09%. For `C=CCNc1oc(COc2ccc(C)cc2)nc1C#N`, the activity change, negative = inhibition was “inactive”. With `O=C(CCN1C(=O)c2ccccc2S1(=O)=O)Nc1ccccc1O` the Potency was inconclusive: 4.61 µM [falling, partial curve, poor fit]. With `Cn1c(-c2c(N)n(CCCc3ccccc3)c3nc4ccccc4nc23)nc2ccccc21` the activity change, negative = inhibition was inconclusive: -23.2%. With `Cc1ccccc1CN1CCN(S(=O)(=O)c2ccc(Cl)s2)CC1` the activity change, negative = inhibition was “inactive”. In the case of `O=C(CCN1CCc2ccccc2C1)Nc1ccc(F)cc1`, the Potency is reported as inconclusive: 11.2 µM [falling, partial curve, poor fit]. With `N#C/C(=C\c1ccc(Cl)cc1)c1nc2ccccc2o1` the Potency was inconclusive: 23.1 µM [falling, single point]. With `Cc1coc2cc3oc(=O)c4c(c3cc12)CCCC4` the activity change, negative = inhibition was “inactive”. With `Cc1ccc(NC(=O)C(=O)NC2CCCCC2)cc1` the activity change, negative = inhibition was inconclusive: 395%. In the case of `O=C(N/N=C/c1ccncc1)c1nc(-c2ccccc2)n2c1CCCCC2`, the activity change, negative = inhibition is reported as inconclusive: 8.43%. With `COC(=O)c1ccc(CSc2nc3c(c(=O)n2-c2ccc(C)cc2)SCC3)o1` the activity change, negative = inhibition was inconclusive: -1.22%. In the case of `CCOC(=O)C1=NOC2C(=O)N(c3ccc(Cl)cc3Cl)C(=O)C12` (stereo not drawn), the activity change, negative = inhibition is reported as inconclusive: -0.276%. With `N#C/C(=C\c1ccc(O)cc1)C(=O)NCC1CCCO1` (stereo not drawn) the activity change, negative = inhibition was “inactive”. With `NC(=O)C1(N2CCCCC2)CCN(C(=O)Nc2ccccc2C(F)(F)F)CC1` the activity change, negative = inhibition was inconclusive: -6.98%. In the case of `Cc1cc(C)cc(NC(=O)Cn2nnc(-c3ccccc3F)n2)c1`, the activity change, negative = inhibition is reported as inconclusive: 20.9%. In the case of `O=C(NC(O)C(=O)c1ccc(F)cc1)c1ccc(F)cc1` (stereo not drawn), the activity change, negative = inhibition is reported as “inactive”. In the case of `COc1cccc(NC(=O)Nc2ccc(Cc3ccncc3)cc2)c1`, the activity change, negative = inhibition is reported as inconclusive: -3.73%. In the case of `C/C(=N\NS(=O)(=O)c1ccc(Cl)cc1)c1ccc(NC(=O)c2ccco2)cc1`, the Potency is reported as inconclusive: 29.1 µM [falling, single point]. In the case of `CSc1ncccc1C(=O)OCc1ccc([N+](=O)[O-])cc1`, the activity change, negative = inhibition is reported as inconclusive: 3.32%. For `CCCCN1Cc2cc(C(=O)c3cc(F)ccc3O)cnc2NC1=O`, the Potency was inconclusive: 35.5 µM [falling, single point]. With `COc1ccc(NC(=O)Nc2cccc3ccccc23)cc1OC` the activity change, negative = inhibition was inconclusive: 1.48%. With `Cc1ccc(CNC(=O)c2cn(C3CCCCC3)c(=O)c3c2c2ccccc2n3C)o1` the activity change, negative = inhibition was inconclusive: -23.9%. For `CCn1c(=NC(=O)CSC(C)=O)sc2ccccc21`, the Potency was inconclusive: 0.058 µM [falling, full curve, poor fit]. For `O=C1C(Cl)=C(N2CCC(C(=O)O)CC2)C(=O)c2ccccc21`, the Potency was inconclusive: 5.62 µM [falling, single point]. In the case of `COc1cccc(-c2cc(N3C(=O)Nc4ccccc4N3O)n[nH]2)c1`, the Potency is reported as inconclusive: 25.9 µM [falling, single point]. For `CC[N+](C)(C)CCN(Cc1ccc(Cl)cc1)c1ccccn1`, the Potency was inconclusive: 29.1 µM [falling, single point]. With `COc1cc(/C=N/N2C(=O)c3ccccc3NC2(C)c2cccc([N+](=O)[O-])c2)cc(Br)c1O` (stereo not drawn) the activity change, negative = inhibition was inconclusive: -2.14%. For `CCn1c(=O)c(C(=O)CN2c3ccccc3CC2C)c(N)n(Cc2ccccc2)c1=O` (stereo not drawn), the activity change, negative = inhibition was inconclusive: 9.5%. With `COc1ccccc1NS(=O)(=O)c1ccc(-c2cnc(C3CC3)o2)cc1` the Potency was inconclusive: 11.2 µM [falling, partial curve]. In the case of `O=C1Nc2ccccc2/C1=C\C(=O)c1ccccc1`, the activity change, negative = inhibition is reported as inconclusive: 11.2%. With `CCOc1ccccc1OCC(=O)Nc1nnc(C)s1` the Potency was inconclusive: 23.1 µM [falling, single point]. With `CCn1c(C)cc(/C=C2\SC(=O)N(CC(=O)Nc3ccc(C)c(C)c3)C2=O)c1C` the activity change, negative = inhibition was inconclusive: 11%. For `CC(=O)c1nn(-c2cccc(C(F)(F)F)c2)c(=O)[nH]c1=O`, the activity change, negative = inhibition was inconclusive: 1.78%. For `Oc1ccc(N2CCN(C(=S)NCCc3ccccc3)CC2)cc1`, the activity change, negative = inhibition was “inactive”. For `C=CCc1cc(Cl)ccc1OCCNCCOC`, the activity change, negative = inhibition was inconclusive: -16.5%. With `COc1ccc2c(c1)cc1n2CCN=C1NCCO` the activity change, negative = inhibition was inconclusive: 21.3%. In the case of `CN1C(C(=O)NCc2ccco2)CC2Cn3c(nc4cc5ccccc5cc43)C21` (stereo not drawn), the activity change, negative = inhibition is reported as inconclusive: -0.732%. With `CCOc1cc(NC(=S)NCC2CCCO2)c(OCC)cc1NC(=O)c1ccccc1C` (stereo not drawn) the activity change, negative = inhibition was “inactive”. In the case of `N#Cc1ccc(OCC(=O)NNC(=S)NC(=O)C2CC2)cc1`, the activity change, negative = inhibition is reported as “inactive”. In the case of `Cc1cccc(C)c1N1CCN(CCn2c(=S)[nH]c3ccccc3c2=O)CC1`, the activity change, negative = inhibition is reported as “inactive”. For `NC(=O)c1cc([N+](=O)[O-])ccc1NCc1ccc(N)cc1`, the Potency was inconclusive: 23.1 µM [falling, partial curve].
